# Part of at least one peptide drawing is inferred or uncertain, most often the ends. Peptide text beside a SMILES is read from it.
# Experiments:
# B16-F10 cells = experiment: Melanogenesis inhibitory activity (melanin content) in B16-F10 cells stimulated with α-MSH; format: cell-based, murine; conditions: 100 nM α-MSH, 72 hours; for melanogenesis inhibitory effect of individual tetrapeptides (melanin content): peptide 30 μM and 100 μM, FIG. 2a; for melanogenesis inhibitory activity compared with p-coumaric acid and arbutin: peptide 10-30 μM, molar comparison, FIG. 3a
# Protocol: (§1) Cells were cultured in a humidified incubator at 37° C. and 5% CO2. Murine melanoma B16-F10 cell lines were cultured in Dulbecco' Modified Eagle Medium containing 10% fetal bovine serum and antibiotics (100 U/mL of penicillin, 0.1 mg/mL of streptomycin and 0.25 μg/mL of amphotericin B), which were purchased from the American Type Culture Collection (Manassas, Va., USA). A human epidermal melanocyte (HEM), derived from a pigmented human neonatal foreskin, was purchased from Cascade Biologics (Portland, Oreg., USA) and cultured in medium 254 containing human melanocyte growth supplements (Cascade Biologics) and antibiotics.
# (§2) A melanin formation inhibitory effect of the peptide to be analyzed was confirmed by using B16-F10 cell lines and HEM. The B16-F10 cells were treated with test peptides at various concentrations and stimulated for 72 hours by using 100 nM of α-MSH. Hexapeptide B6 (Phe-Ser-His-His-Leu-Gly-NH2) (SEQ ID NO: 20), p-coumaric acid and arbutin were used as a control group. A level of extracellular melanin was measured by using a conditioned medium in which cells were previously cultured. Intracellular melanin was extracted at 60° C. for 60 minutes by using 1.0 M NaOH. A content of melanin was spectroscopically measured by measuring absorbance at 475 nm and resultant values were normalized with regard to a total protein content of cells by using Bio-Rad DC assay.
# [1] = system: human epidermal melanocyte (HEM); experiment: Melanogenesis inhibitory activity (intracellular and extracellular melanin) in HEMs stimulated with α-MSH; format: cell-based; conditions: FIG. 6a
# Protocol: as §1
# as §2, with “assay. […]” for “assay.”
Compound,melanogenesis inhibitory effect of individual tetrapeptides (melanin content) (B16-F10 cells),melanogenesis inhibitory activity compared with p-coumaric acid and arbutin (B16-F10 cells),increase in content of intracellular and extracellular melanins in HEMs [1],"melanogenesis inhibitory effect of short peptides (melanin content) (B16-F10 cells; peptide 30 μM to 100 μM, FIG. 4a)"
"N=C(N)NCCC[C@H](N)C(=O)N[C@@H](Cc1ccccc1)C(=O)N[C@@H](Cc1c[nH]c2ccccc12)C(=O)NCC(N)=O [D3, Arg-Phe-Trp-Gly-NH2] (H-RFWG-NH2)",excellently inhibited melanogenesis,melanogenesis inhibitory activity at a concentration lower than that of p-coumaric acid and arbutin,weakened,
"NC(=O)CNC(=O)[C@@H](N)Cc1c[nH]c2ccccc12 [F1, Trp-Gly-NH2] (H-Trp-Gly-NH2)",,,weakened,has an effect of melanogenesis inhibitory activity
"CC(C)C[C@H](NC(=O)[C@@H](N)CCCNC(=N)N)C(=O)N[C@@H](Cc1c[nH]c2ccccc12)C(=O)NCC(N)=O [D5, Arg-Leu-Trp-Gly-NH2] (H-RLWG-NH2)",excellently inhibited melanogenesis,melanogenesis inhibitory activity at a concentration lower than that of p-coumaric acid and arbutin,,
